For 1 molecule, binding results are on record in PMC5591945, “Novel Protein-Protein Inhibitor Based Approach to Control Plant Ethylene Responses: Synthetic Peptides for Ripening Control” (Frontiers in Plant Science, 2017).

No constants are given. Whether binding was seen depends on the method and setting.

The test addresses T1, tomato ethylene receptor NR (NeverRipe) (tomato (Solanum lycopersicum)) (UniProt Q41341).
T1 sequence (chain, labeled with Alexa Fluor 488-Maleimide): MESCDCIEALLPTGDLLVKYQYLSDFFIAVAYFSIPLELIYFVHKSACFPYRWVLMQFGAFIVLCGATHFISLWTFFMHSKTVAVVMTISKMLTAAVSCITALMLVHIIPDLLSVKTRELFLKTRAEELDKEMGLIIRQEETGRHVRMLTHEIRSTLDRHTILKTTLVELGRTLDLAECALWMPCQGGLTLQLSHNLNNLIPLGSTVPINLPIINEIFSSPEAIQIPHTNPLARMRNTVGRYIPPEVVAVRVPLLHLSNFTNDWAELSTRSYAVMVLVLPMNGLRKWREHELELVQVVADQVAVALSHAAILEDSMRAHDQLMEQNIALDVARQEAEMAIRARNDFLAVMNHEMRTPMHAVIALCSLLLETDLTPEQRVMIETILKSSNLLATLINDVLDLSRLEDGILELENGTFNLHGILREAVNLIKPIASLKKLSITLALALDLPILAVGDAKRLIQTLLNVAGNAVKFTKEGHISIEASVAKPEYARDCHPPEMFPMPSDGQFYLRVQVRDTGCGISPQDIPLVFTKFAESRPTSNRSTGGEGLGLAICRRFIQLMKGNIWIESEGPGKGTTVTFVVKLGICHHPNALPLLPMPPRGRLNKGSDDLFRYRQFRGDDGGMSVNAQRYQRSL
The test is described as follows: condition: only receptor chemically denatured with 4% (w/v) SDS and 40 mM DTT; MST; as a1, but receptors chemically denatured with 4% (w/v) SDS and 40 mM DTT for 5 min in the dark at RT (negative control); both purified.

B1: NOP-1 octapeptide (peptide)
peptide: LKRYKRRL
notes: Used unlabeled in MST; also called NLS-derived peptide; source: synthetic peptide (GenScript)
As for B1, the binding entry is “no binding”.
